{
  "source": "paper PMC9007350",
  "about": "“Aurintricarboxylic acid is a canonical disruptor of the TAZ-TEAD transcriptional complex” (PLoS ONE, 2022)",
  "system": "TC/TEAD transcriptional profile in TC-expressing NIH3T3 cells",
  "test": "Bulk RNA-Seq, differential gene expression and GSEA (TC ATA v. TC DMSO)",
  "type": "cell-based, murine",
  "details": "TC ATA v. TC DMSO",
  "method": "NIH3T3 and HEK293 cells were obtained from the American Type Tissue Collection (ATCC, Manassas, VA) and cultured in DMEM containing 10% fetal bovine serum and penicillin/streptomycin. A TEAD dual luciferase reporter assay was performed as previously described. Cells were treated with vehicle control or ATA (10 μM) for 48 h before measuring the luciferase activity or processing the samples for RNA extraction. Each experiment was repeated at least 2-3 times. NIH3T3 cells were used. The extracted RNA (RNeasy Mini, Qiagen) from treated cells was either used for qPCR measurements or sent for bulk RNA-Seq. Sequencing runs were performed on an Illumina HiSeq 4000 sequencer (Genewiz). Subsequent bioinformatics analysis was performed in the Galaxy Project platform. Paired end reads were aligned to the murine genome ([…]2 [27]. Raw count files were generated with featureCounts using a corresponding GTF reference. Differential gene expression analysis was performed with DESeq2 [29]. Transcripts were considered to be differentially expressed if the false discovery rate < 0.05 and Log2FC > 2. When performing differential gene expression for GSEA analysis, the Limma package was used (<5 CPM filtering) with t-scores used for rank statistics. GSEA plots and statistics were generated with FGSEA with custom gene sets. Raw sequencing reads and processed files have been deposited in the GEO repository (data will be uploaded upon manuscript acceptance). The Universal Probe Library probes (Roche) and the associated primer sequences for the qPCR targets are listed below: […]",
  "note": "The source gives many values for each of these; only a part stands here.",
  "data": [
    {"smiles": "O=C(O)C1=CC(=C(c2ccc(O)c(C(=O)O)c2)c2ccc(O)c(C(=O)O)c2)C=CC1=O", "note": "[ATA, aurintricarboxylic acid]", "values": [
      {"measurement": "Log2 Fold Change", "setting": "Klf5", "value": -0.2855},
      {"measurement": "Log2 Fold Change", "setting": "Klhl24", "value": 0.2866},
      {"measurement": "Log2 Fold Change", "setting": "Kpnb1", "value": -0.222},
      {"measurement": "Log2 Fold Change", "setting": "Lars", "value": -0.211},
      {"measurement": "Log2 Fold Change", "setting": "Leprot", "value": 0.2281},
      {"measurement": "Log2 Fold Change", "setting": "Lipa", "value": 0.3212},
      {"measurement": "Log2 Fold Change", "setting": "Lrrc39", "value": 1.097},
      {"measurement": "Log2 Fold Change", "setting": "Lyar", "value": -0.2586},
      {"measurement": "Log2 Fold Change", "setting": "Map1b", "value": -0.272},
      {"measurement": "Log2 Fold Change", "setting": "Map2k1", "value": -0.2205},
      {"measurement": "Log2 Fold Change", "setting": "Mdn1", "value": -0.3419},
      {"measurement": "Log2 Fold Change", "setting": "Metap1", "value": -0.2159},
      {"measurement": "Log2 Fold Change", "setting": "Mettl7a1", "value": 0.4512},
      {"measurement": "Log2 Fold Change", "setting": "Mgst2", "value": 0.5497},
      {"measurement": "Log2 Fold Change", "setting": "Misp3", "value": 0.5752},
      {"measurement": "Log2 Fold Change", "setting": "Mmd", "value": -0.3011},
      {"measurement": "Log2 Fold Change", "setting": "Mn1", "value": 0.3801},
      {"measurement": "Log2 Fold Change", "setting": "Mpp6", "value": -0.207},
      {"measurement": "Log2 Fold Change", "setting": "Mrps10", "value": -0.2675},
      {"measurement": "Log2 Fold Change", "setting": "Myh6", "value": 1.256},
      {"measurement": "Log2 Fold Change", "setting": "Mylk4", "value": 0.692},
      {"measurement": "Log2 Fold Change", "setting": "Mylk", "value": 0.6396},
      {"measurement": "Log2 Fold Change", "setting": "Nacc2", "value": 0.2971},
      {"measurement": "Log2 Fold Change", "setting": "Nap1l1", "value": -0.2071},
      {"measurement": "Log2 Fold Change", "setting": "Net1", "value": -0.2446},
      {"measurement": "Log2 Fold Change", "setting": "Neu1", "value": 0.2823},
      {"measurement": "Log2 Fold Change", "setting": "Ngly1", "value": 0.3979},
      {"measurement": "Log2 Fold Change", "setting": "Nid2", "value": 0.4596},
      {"measurement": "Log2 Fold Change", "setting": "Noc2l", "value": -0.2621},
      {"measurement": "Log2 Fold Change", "setting": "Nol10", "value": -0.2148},
      {"measurement": "Log2 Fold Change", "setting": "Nolc1", "value": -0.2369},
      {"measurement": "Log2 Fold Change", "setting": "Npas4", "value": 0.579},
      {"measurement": "Log2 Fold Change", "setting": "Nsun2", "value": -0.2003},
      {"measurement": "Log2 Fold Change", "setting": "Nt5dc3", "value": -0.2851},
      {"measurement": "Log2 Fold Change", "setting": "Nup160", "value": -0.2228},
      {"measurement": "Log2 Fold Change", "setting": "Nup205", "value": -0.2231},
      {"measurement": "Log2 Fold Change", "setting": "Oaf", "value": -0.2739},
      {"measurement": "Log2 Fold Change", "setting": "P4ha3", "value": 0.2953},
      {"measurement": "Log2 Fold Change", "setting": "Pappa", "value": 0.5236},
      {"measurement": "Log2 Fold Change", "setting": "Pawr", "value": 0.2769},
      {"measurement": "Log2 Fold Change", "setting": "Pcdhb9", "value": 0.6083},
      {"measurement": "Log2 Fold Change", "setting": "Pdgfc", "value": 0.2436},
      {"measurement": "Log2 Fold Change", "setting": "Pdlim3", "value": 0.5354},
      {"measurement": "Log2 Fold Change", "setting": "Pdlim5", "value": 0.2888},
      {"measurement": "Log2 Fold Change", "setting": "Perm1", "value": 0.7366},
      {"measurement": "Log2 Fold Change", "setting": "Pfas", "value": -0.3358},
      {"measurement": "Log2 Fold Change", "setting": "Pfkm", "value": 0.2521},
      {"measurement": "Log2 Fold Change", "setting": "Pgam2", "value": 0.5329},
      {"measurement": "Log2 Fold Change", "setting": "Phactr1", "value": 0.3767},
      {"measurement": "Log2 Fold Change", "setting": "Pik3ip1", "value": 0.4583},
      {"measurement": "Log2 Fold Change", "setting": "Pik3r1", "value": 0.2713},
      {"measurement": "Log2 Fold Change", "setting": "Plac1", "value": -0.7794},
      {"measurement": "Log2 Fold Change", "setting": "Plekha1", "value": -0.3132},
      {"measurement": "Log2 Fold Change", "setting": "Plekhh2", "value": 0.2808},
      {"measurement": "Log2 Fold Change", "setting": "Plin4", "value": 0.6111},
      {"measurement": "Log2 Fold Change", "setting": "Plpp1", "value": 0.2637},
      {"measurement": "Log2 Fold Change", "setting": "Pnrc1", "value": 0.328},
      {"measurement": "Log2 Fold Change", "setting": "Polr3gl", "value": 0.469},
      {"measurement": "Log2 Fold Change", "setting": "Ppat", "value": -0.2439},
      {"measurement": "Log2 Fold Change", "setting": "Pramef8", "value": 0.3225},
      {"measurement": "Log2 Fold Change", "setting": "Prc1", "value": -0.2082},
      {"measurement": "Log2 Fold Change", "setting": "Prickle1", "value": 0.3258},
      {"measurement": "Log2 Fold Change", "setting": "Prrx1", "value": 0.2153},
      {"measurement": "Log2 Fold Change", "setting": "Prss23", "value": 0.2592},
      {"measurement": "Log2 Fold Change", "setting": "Psca", "value": 0.6613},
      {"measurement": "Log2 Fold Change", "setting": "Ptpn21", "value": -0.2255},
      {"measurement": "Log2 Fold Change", "setting": "Pttg1ip", "value": -0.2103},
      {"measurement": "Log2 Fold Change", "setting": "Pygm", "value": 0.4335},
      {"measurement": "Log2 Fold Change", "setting": "Rab3c", "value": 0.5021},
      {"measurement": "Log2 Fold Change", "setting": "Rai14", "value": -0.2838},
      {"measurement": "Log2 Fold Change", "setting": "Rap1gds1", "value": -0.2029},
      {"measurement": "Log2 Fold Change", "setting": "Rcn3", "value": 0.2746},
      {"measurement": "Log2 Fold Change", "setting": "Rftn2", "value": 0.314},
      {"measurement": "Log2 Fold Change", "setting": "Rfx2", "value": 0.4272},
      {"measurement": "Log2 Fold Change", "setting": "Rhoj", "value": 0.2731},
      {"measurement": "Log2 Fold Change", "setting": "Rhoq", "value": 0.2495},
      {"measurement": "Log2 Fold Change", "setting": "Rin2", "value": 0.3262},
      {"measurement": "Log2 Fold Change", "setting": "Rnaseh2a", "value": -0.2573},
      {"measurement": "Log2 Fold Change", "setting": "Rnd1", "value": -0.3278},
      {"measurement": "Log2 Fold Change", "setting": "Rnf19b", "value": -0.2794},
      {"measurement": "Log2 Fold Change", "setting": "Rnf144a", "value": 0.3402},
      {"measurement": "Log2 Fold Change", "setting": "Rora", "value": 0.6043},
      {"measurement": "Log2 Fold Change", "setting": "Ruvbl2", "value": -0.2512},
      {"measurement": "Log2 Fold Change", "setting": "Scara5", "value": 0.5618},
      {"measurement": "Log2 Fold Change", "setting": "Scp2", "value": 0.2571},
      {"measurement": "Log2 Fold Change", "setting": "Sema3a", "value": -0.3608},
      {"measurement": "Log2 Fold Change", "setting": "Sema6c", "value": 0.5141},
      {"measurement": "Log2 Fold Change", "setting": "Shmt2", "value": -0.2428},
      {"measurement": "Log2 Fold Change", "setting": "Sipa1l3", "value": -0.3061},
      {"measurement": "Log2 Fold Change", "setting": "Slc2a4", "value": 0.6518},
      {"measurement": "Log2 Fold Change", "setting": "Slc29a2", "value": -0.4299},
      {"measurement": "Log2 Fold Change", "setting": "Slc38a6", "value": 0.3447},
      {"measurement": "Log2 Fold Change", "setting": "Slc44a1", "value": 0.2575},
      {"measurement": "Log2 Fold Change", "setting": "Slk", "value": -0.2569},
      {"measurement": "Log2 Fold Change", "setting": "Smarca2", "value": 0.2974},
      {"measurement": "Log2 Fold Change", "setting": "Smox", "value": 0.2959},
      {"measurement": "Log2 Fold Change", "setting": "Sned1", "value": 0.6541},
      {"measurement": "Log2 Fold Change", "setting": "Socs6", "value": -0.2405},
      {"measurement": "Log2 Fold Change", "setting": "Sox5", "value": 0.4942},
      {"measurement": "Log2 Fold Change", "setting": "Spo11", "value": -0.526},
      {"measurement": "Log2 Fold Change", "setting": "Spry1", "value": 0.3907},
      {"measurement": "Log2 Fold Change", "setting": "Spsb2", "value": 0.3042},
      {"measurement": "Log2 Fold Change", "setting": "Srpx2", "value": 0.6084},
      {"measurement": "Log2 Fold Change", "setting": "Stk38l", "value": 0.3153},
      {"measurement": "Log2 Fold Change", "setting": "Sync", "value": 0.7364},
      {"measurement": "Log2 Fold Change", "setting": "Synpo2", "value": 0.4619},
      {"measurement": "Log2 Fold Change", "setting": "Tacc1", "value": 0.349},
      {"measurement": "Log2 Fold Change", "setting": "Tacc2", "value": -0.2478},
      {"measurement": "Log2 Fold Change", "setting": "Tap2", "value": 0.3384},
      {"measurement": "Log2 Fold Change", "setting": "Tbc1d2", "value": -0.3647},
      {"measurement": "Log2 Fold Change", "setting": "Tcn2", "value": 0.6828},
      {"measurement": "Log2 Fold Change", "setting": "Tcp11l2", "value": 0.7827}
    ]}
  ]
}
